Results are given in words; binding and its absence hold for the method and conditions named. Binding seen in cells or lysates may run through a third protein. Here binding means that the protein was enriched with, or labelled near, the bait; the list need not be complete.
Biological target: Flag-tagged wild-type von Hippel-Lindau tumour suppressor protein (pVHL), stably expressed in HCT116 (human) (UniProt P40337)
Test: affinity purification with mass spectrometry; Flag-pVHL stably expressed in HCT116 cultured with the proteasome inhibitor MG132; affinity purification from whole cell extracts, 4-20% SDS-PAGE, bands identified by LC-MS/MS

Amino acid sequences for entries named in this document (tags omitted).
UniProt P40337: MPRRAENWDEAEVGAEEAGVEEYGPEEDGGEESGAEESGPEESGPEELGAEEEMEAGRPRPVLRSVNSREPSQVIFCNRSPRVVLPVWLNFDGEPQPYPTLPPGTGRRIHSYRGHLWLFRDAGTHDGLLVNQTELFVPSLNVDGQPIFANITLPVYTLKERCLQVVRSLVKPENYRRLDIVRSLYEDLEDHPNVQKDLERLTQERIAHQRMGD

binding: binds
B1: fatty acid coenzyme A ligase 5, endogenous in HCT116 (enzyme, UniProt Q9ULC5 1-683)
chain: MLFIFNFLFSPLPTPALICILTFGAAIFLWLITRPQPVLPLLDLNNQSVGIEGGARKGVSQKNNDLTSCCFSDAKTMYEVFQRGLAVSDNGPCLGYRKPNQPYRWLSYKQVSDRAEYLGSCLLHKGYKSSPDQFVGIFAQNRPEWIISELACYTYSMVAVPLYDTLGPEAIVHIVNKADIAMVICDTPQKALVLIGNVEKGFTPSLKVIILMDPFDDDLKQRGEKSGIEILSLYDAENLGKEHFRKPVPPSPEDLSVICFTSGTTGDPKGAMITHQNIVSNAAAFLKCVEHAYEPTPDDVAISYLPLAHMFERIVQAVVYSCGARVGFFQGDIRLLADDMKTLKPTLFPAVPRLLNRIYDKVQNEAKTPLKKFLLKLAVSSKFKELQKGIIRHDSFWDKLIFAKIQDSLGGRVRVIVTGAAPMSTSVMTFFRAAMGCQVYEAYGQTECTGGCTFTLPGDWTSGHVGVPLACNYVKLEDVADMNYFTVNNEGEVCIKGTNVFKGYLKDPEKTQEALDSDGWLHTGDIGRWLPNGTLKIIDRKKNIFKLAQGEYIAPEKIENIYNRSQPVLQIFVHGESLRSSLVGVVVPDTDVLPSFAAKLGVKGSFEELCQNQVVREAILEDLQKIGKESGLKTFEQVKAIFLHPEPFSIENGLLTPTLKAKRGELSKYFRTQIDSLYEHIQD

From PMC5543055
